Results published in PubChem BioAssay AID1347075 (National Center for Advancing Translational Sciences (NCATS), 2019).
The whole screen tested about 400,000 compounds, of which about 5,500 (1.4%) were called active. The inconclusive results got no clear call from the source; some entries with a clear call stand among them for comparison. Calls follow the shape of the dose curve; as a rule, active = well fitted cell-killing curve with a large enough effect; inconclusive = small, poorly fitted or top-dose-only effect, or effect the other way; inactive = flat fitted curve, though single readings scatter. Potencies beside an inconclusive call are fits to weak or partial responses and may not hold up.

Assay: qHTS assay for MDR1-selective chemotherapeutics: Primary screen using the parental adenocarcinoma cell KB-3-1; also: nearly all actives have a fitted effect of over 60% in size
Conditions: KB-3-1 viability, CellTiter-Glo ATP luminescence, 72 h; activity change, negative = cytotoxic: at 46.1 µM (top of the series)
Method in brief: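 Using CellTiter-Glo luminescence, growth of non-resistant KB-3-1 adenocarcinoma cells is assessed 72 h after pin-tool compound addition at 37 °C. Normalized responses across the concentration series yield fitted curves.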
% is scaled to controls: 0 for no effect and ±100 for the full control effect; potency is read from the fitted curve at half-maximal effect.

Structure (SMILES)	Potency	activity change, negative = cytotoxic
CCCC(=O)Nc1nc2ccc(NC(=O)c3c(F)c(F)c(OC)c(F)c3F)cc2s1	active: 2.59 µM	
O=C(c1ccccc1)c1nn(-c2ccccc2)c2nnc(Cc3ccccc3)c(=O)n12	inconclusive: 29.1 µM [cytotoxic, single point]	
O=C(c1ccccc1)c1cc([N+](=O)[O-])ccc1N1CCOCC1	active: 1.16 µM	
O=[N+]([O-])c1ccccc1/C=N/N1CCN(c2ccc(Cl)cc2)CC1	inconclusive: 18.4 µM [cytotoxic, partial curve, poor fit]	
Cc1nc(S(=O)(=O)N2CCN(c3ccc(Cl)cc3)CC2)cn1C		inactive: 5.25%
CCN(CC)CCCNC(=O)c1c(O)c2cc(F)cc3c2n(c1=O)C(C)CC3 (stereo unspecified)	inconclusive: 18.4 µM [cytotoxic, single point]	
CCOC(=O)c1c(C)[nH]c(C)c1C(=O)COC(=O)/C=C/c1cccc(C(F)(F)F)c1	inconclusive: 29.1 µM [rising, single point]	
Cc1sc2ncnc(NCC(C)(C)N3CCOCC3)c2c1C	inconclusive: 3.26 µM [cytotoxic, full curve]	
Cc1ccc(C(NC(=O)C2CCCCC2)c2c(O)ccc3ccccc23)cc1 (stereo unspecified)	inconclusive: 20.6 µM [cytotoxic, single point]	
CCOc1ncccc1C(=O)OCc1ccc(C(=O)OC)cc1	inconclusive: 20.6 µM [cytotoxic, single point]	
COc1ccc(F)cc1S(=O)(=O)Nc1ccc(C)cc1	inconclusive: 16.4 µM [cytotoxic, partial curve, poor fit]	
COC(=O)C1=CN(c2ccc(F)cc2)C(N)=C(C#N)C1c1cccc(F)c1 (stereo unspecified)	inconclusive: 18.4 µM [cytotoxic, single point]	
O=C(CN(CC1CCCO1)C(=O)CNS(=O)(=O)c1ccc(F)cc1)NCc1ccc(F)cc1 (stereo unspecified)		inactive: 2.73%
C#CC[N+](C)(C)CCCCCCCCCC	active: 3.66 µM	
CC1CCC(C(C)C)C(NC(=O)c2ccncc2)C1 (stereo unspecified)		inactive: 0%
CCN1C(=O)/C(=C\C=C\c2ccccc2[N+](=O)[O-])SC1=S	inconclusive: 20.6 µM [cytotoxic, single point]	
CC(=O)Nc1ccc(-c2ccnc3c2CC(C)(C(=O)NCc2ccco2)O3)cc1 (stereo unspecified)	active: 10.3 µM	
CCC(C(=O)NC1CCCC1)n1c(C2CC2)nc2ccccc21 (stereo unspecified)		inactive: -6.6%
Cc1ccc(-n2ncc3c(N4CCN(c5ccccc5)CC4)ncnc32)cc1C		inactive: 2.02%
CC(O)(c1ccc(F)c(F)c1)c1nc(/C=C/c2ccccc2)cs1 (stereo unspecified)		inactive: 0%
CCN(CC)S(=O)(=O)c1ccc(N2CCN(c3ccccc3O)CC2)nc1	inconclusive: 25.9 µM [cytotoxic, partial curve, poor fit]	

Exported in markdown: entries from further up

| Structure (SMILES) | Potency | activity change, negative = cytotoxic |
| --- | --- | --- |
| CC(O)(c1ccc(F)c(F)c1)c1nc(/C=C/c2ccccc2)cs1 (stereo unspecified) |  | inactive: 0% |
| CCN(CC)S(=O)(=O)c1ccc(N2CCN(c3ccccc3O)CC2)nc1 | inconclusive: 25.9 µM [cytotoxic, partial curve, poor fit] |  |
